Consider two substances from patent publication US20220089663A1 (MEMORIAL SLOAN KETTERING CANCER CENTER, priority 2019, published 2022).

The data set in a line: general procedure: Fmoc solid-phase peptide synthesis; Rink-amide resin. The settings on record: conjugation step.

“GNDCLGFWSACNPK(Cy7.5)NDKCCANLVCSSKHKWCKGKL” came in with a conjugation yield (from Hs1a peptide) of 14%.

As to “YCQK(BODIPY)FLWTCDSERPCCEGLVCRLWCKIN-NH2”, the “final HPLC purity” value (analytical RP-HPLC, area under the curve, several disulfide bridges, sequence written open) is on record as 83%. Moreover, the conjugation yield (from Hsp1a peptide, several disulfide bridges, sequence written open) is 55%.
